Experimental data as given in the supplement of paper PMC3741180, “A Novel High Throughput Biochemical Assay to Evaluate the HuR Protein-RNA Complex Formation” (PLoS ONE, 2013).
“And” between values parts separate entries of the source, which are not always exact repeats. Equal entries are not always repeated. Some of the results follow. Most values lie within the scatter of the assay; repeated measurements hardly agree.

By UniProt entry, the sequences of proteins in these tests, tags left out.
UniProt Q15717, whole entry: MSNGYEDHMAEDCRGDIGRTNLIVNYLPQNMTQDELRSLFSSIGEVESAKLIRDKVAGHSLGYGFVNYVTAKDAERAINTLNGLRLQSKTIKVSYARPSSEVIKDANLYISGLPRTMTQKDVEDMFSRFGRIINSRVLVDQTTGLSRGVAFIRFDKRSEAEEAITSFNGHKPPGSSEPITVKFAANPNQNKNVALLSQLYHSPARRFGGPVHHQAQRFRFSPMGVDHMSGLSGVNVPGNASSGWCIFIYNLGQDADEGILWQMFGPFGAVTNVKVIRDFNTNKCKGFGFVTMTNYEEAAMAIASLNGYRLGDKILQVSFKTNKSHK

target: HuR (ELAVL1) - TNFalpha ARE RNA complex (UniProt Q15717); assay: AlphaScreen HuR-RNA complex signal Z-score relative to positive (Bi-TNF, DMSO) controls (Z-score (SD units of positive control)); higher = more complex signal; settings: screen stage: primary screen; compound concentration: 25 nM

| SMILES | AlphaScreen HuR-RNA complex signal Z-score |
| --- | --- |
| COc1cc2ccc(=O)oc2c2ccoc12 | 3.2 |
| NCC1(CC(=O)O)CCCCC1 | 0.814 |
| C=CCc1ccc(OC)cc1 | 2.69 |
| CC[C@@H](C)C(=O)O[C@H]1[C@H](O)[C@H]2[C@@H](CN3C[C@@H](C)CC[C@H]3[C@@]2(C)O)[C@@H]2C[C@]34O[C@]5(O)[C@@H](OC(=O)[C@@](C)(O)CC)CC[C@@]3(C)[C@@H]5[C@@H](OC(C)=O)[C@@H](OC(C)=O)[C@H]4[C@@]21O | -2.26 |
| O=c1cccc2n1CC1CC2CN2CCCC[C@@H]12.[O-][Cl+3]([O-])([O-])O (some centres undefined) | 2.82 |
| CCOC(=O)c1cncn1[C@H](C)c1ccccc1 | 3.4 |
| ClC1=C(Cl)C2(Cl)C3C4CC(C5OC45)C3C1(Cl)C2(Cl)Cl (centres undefined) | 2.22 |
| C[N+]12CC[C@@]34c5ccccc5N5C(=O)C[C@@H]6OCC=C(C1)[C@H](C[C@@H]32)[C@@H]6[C@H]54 (some centres undefined) | -0.975 |
| COc1ccc2c(c1OC)C(=O)O[C@@H]2[C@H]1c2cc3c(cc2CCN1C)OCO3 | -0.175 |
| O=C(NC(=O)c1c(F)cccc1F)Nc1ccc(Cl)cc1 | 4.62 |
| COc1cc2c(cc1O)CCN[C@@H]2C | 1.93 |
| C[C@@H]1C[C@@H]([C@H](O)CC2CC(=O)NC(=O)C2)C(=O)[C@@H](C)C1 | 0.159 |
| COc1cc2c(cc1OC)[C@@H]1C(=O)c3ccc4c(c3O[C@@H]1CO2)CC(C(C)C)O4 (some centres undefined) | 2.12 |
| COc1ccc2c(c1OC)C(=O)O[C@H]2[C@H]1c2cc3c(cc2CCN1C)OCO3 | 2.09 |
| CC[C@@H](CO)NC(=O)[C@@H]1C=C2c3cccc4[nH]cc(c34)C[C@H]2N(C)C1 | 3.71 |
| CCCCOC(=O)c1ccccc1C(=O)OCCCC | 0.311 |
| C=CCc1cc(OC)c2c(c1OC)OCO2 | 1.51 |
| C[N+]1(C)CCc2cc3c(cc2[C@H]1[C@@H]1OC(=O)c2c1ccc1c2OCO1)OCO3 | 1.98 |
| CCC(C)C(=O)OC1CC2(C)C(c3ccoc3)OC(=O)CC23OC2(C)OC34C(OC(=O)C(C)C)C3(O)C(OC(=O)C5(C)OC5C)C5(C)CC3(O)C(C)(C5CC(=O)OC)C14O2 (centres undefined) | -4.89 |
| c1cncc([C@@H]2CCCCN2)c1 | 1.59 |
| CC(C)(O)[C@@H]1[C@H]2OC(=O)[C@@H]1[C@]1(O)C[C@H]3O[C@]34C(=O)O[C@H]2[C@]14C | 2.18 |
| CC(C)(C#N)O[C@@H]1O[C@H](CO)[C@@H](O)[C@H](O)[C@H]1O | 1.55 |
| CC(=O)O[C@H]1C(=O)[C@@]2(C)[C@H]([C@H](OC(=O)c3ccccc3)[C@]3(O)C[C@H](O)C(C)=C1C3(C)C)[C@]1(OC(C)=O)CO[C@@H]1C[C@@H]2O | 0.473 |
| C=C(C)[C@H]1Cc2c(ccc3c(=O)c4c(oc23)COc2cc(OC)c(OC)cc2-4)O1 | 2.36 |
| CC(=O)O[C@H]1[C@H]2[C@@H](OC(=O)Cc3ccccc3)[C@@H](C)C[C@]2(OC(C)=O)C(=O)/C(C)=C/[C@@H]2[C@H](CC[C@@]13CO3)C2(C)C | 2.52 |
| NC(=O)c1cc([N+](=O)[O-])cc([N+](=O)[O-])c1 | 3.36 |
| COc1ccc2c(c1O)-c1c(OC)c(OC)cc3c1[C@H](C2)N(C)CC3 | 1.78 |

3 structures from above, ordered by SMILES length, descending.

| SMILES | AlphaScreen HuR-RNA complex signal Z-score |
| --- | --- |
| C=C(C)[C@H]1Cc2c(ccc3c(=O)c4c(oc23)COc2cc(OC)c(OC)cc2-4)O1 | 2.36 |
| COc1cc2ccc(=O)oc2c2ccoc12 | 3.2 |
| C=CCc1ccc(OC)cc1 | 2.69 |

The list continues.

| SMILES | AlphaScreen HuR-RNA complex signal Z-score |
| --- | --- |
| O=C1CC[C@@]2(O)[C@H]3Cc4ccc(O)c5c4[C@@]2(CCN3CC2CC2)[C@H]1O5 | 0.723 |
| C=CCSSCC=C | 1.52 |
| CC(=O)[C@H]1CC[C@H]2[C@@H]3CC[C@H]4C[C@H](O)CC[C@]4(C)[C@H]3CC[C@]12C | 0.648 |
| NCC(CC(=O)O)c1ccc(Cl)cc1 (centres undefined) | 0.358 |
| CC(NC(C)(C)C)C(=O)c1cccc(Cl)c1 (centres undefined) | -2.69 |
| O=C(O)CCCO | -3.21 |
| CN[C@@H](C)[C@@H](O)c1ccccc1 | 4.12 |
| CN1[C@@H]2C[C@@H](OC(=O)[C@H](CO)c3ccccc3)C[C@H]1[C@@H]1O[C@@H]12 | 3.25 |
| C[C@@H]1O[C@@H](O[C@H]2CC[C@]3(C=O)[C@H]4CC[C@]5(C)[C@@H](C6=CC(=O)OC6)CC[C@]5(O)[C@@H]4CC[C@]3(O)C2)[C@H](O)[C@H](O)[C@H]1O | 2.06 |
| CC1(C)C2CC(=O)[C@]3(C)C(CC[C@@]4(C)[C@H](c5ccoc5)OC(=O)C5OC543)[C@@]2(C)[C@@H](O)C[C@H]1O (some centres undefined) | 2.37 |
| ClC(Cl)=C(c1ccc(Cl)cc1)c1ccc(Cl)cc1 | 0.956 |
| COC1=C[C@@H]2[C@@H]3Cc4ccc(OC)c(O)c4[C@]2(CCN3C)CC1=O | 2.48 |
| CCOC(=O)C1C(C=C(C)C)C1(C)C (centres undefined) | 2.39 |
| O=C1C=CC(=O)c2ccccc21 | 3.2 |
| CCC(C)C(=O)O[C@@H]1C[C@@]2(C)[C@H](c3ccoc3)OC(=O)CC23OC2(C)O[C@]14[C@]1(C)[C@@H](CC(=O)OC)C5(C)CC1(O)[C@](O)(C5OC(=O)C1(C)OC1C)[C@@H](OC(C)=O)[C@]34O2 (some centres undefined) | 1.3 |
| CN1C[C@H](C(=O)N[C@]2(C)O[C@@]3(O)[C@@H]4CCCN4C(=O)[C@H](Cc4ccccc4)N3C2=O)C=C2c3cccc4[nH]cc(c34)C[C@H]21 | -0.319 |
| CNc1ccccc1C(=O)O | 0.548 |
| C[C@@H]1C(=O)O[C@H]2[C@H]1CC[C@@]1(C)C=CC(=O)[C@@]3(C)O[C@@]213 [EPOXY (4,5alpha)-4,5-DIHYDROSANTONIN] | 0.903 |
| COP(=O)(OC)C(O)C(Cl)(Cl)Cl (centres undefined) | 3.38 |
| CNC1CC(N)C(O)C(OC2OC(CO)C(O)C3OC4(OC(C(N)CO)C(O)C(O)C4O)OC23)C1O (centres undefined) | 2.36 |
| C=CCc1ccc2c(c1)OCO2 | -0.27 |
| CCCC(C)C1(CC)C(=O)NC(=O)NC1=O (centres undefined) | 3.73 |
| C[C@H]1CC[C@]2(NC1)O[C@H]1C[C@H]3[C@@H]4CC[C@H]5C[C@@H](O)CC[C@]5(C)[C@H]4CC[C@]3(C)[C@H]1[C@@H]2C | 2.05 |
| COP(=O)(OC)OC=C(Cl)Cl | 0.315 |
| S=C=NCc1ccccc1 | 1.81 |
| C[C@]12CCC(=O)C=C1C=C[C@@H]1[C@@H]2CC[C@@]2(C)[C@H]1CC[C@@]2(O)CCC(=O)O | -2.2 |
| CO[C@H]1[C@H](O)[C@H](O[C@H]2CC[C@@]3(C=O)[C@H](CC[C@@H]4[C@@H]3CC[C@]3(C)[C@@H](C5=CC(=O)OC5)CC[C@]43O)C2)O[C@@H](C)[C@@H]1O | 1.49 |

2 neighbouring records out of the list so far:

| SMILES | AlphaScreen HuR-RNA complex signal Z-score |
| --- | --- |
| ClC(Cl)=C(c1ccc(Cl)cc1)c1ccc(Cl)cc1 | 0.956 |
| COC1=C[C@@H]2[C@@H]3Cc4ccc(OC)c(O)c4[C@]2(CCN3C)CC1=O | 2.48 |

Continued.

| SMILES | AlphaScreen HuR-RNA complex signal Z-score |
| --- | --- |
| CC(=O)O[C@@H]1[C@H]2CC[C@H]3[C@@](C)(O)[C@@H]4C[C@H](O)C(C)(C)[C@@]4(O)[C@H](O)C[C@@]13C[C@@]2(C)O | 1.69 |
| CC[C@@H](C(=O)[C@@H](C)[C@@H](O)[C@H](C)[C@@H]1O[C@@H]([C@@H](CC)C(=O)O)CC[C@@H]1C)[C@H]1O[C@]2(C=C[C@@H](O)[C@]3(CC[C@@](C)([C@H]4CC[C@](O)(CC)[C@H](C)O4)O3)O2)[C@H](C)C[C@@H]1C | 0.58 |
| O=c1ccc2cc(O[C@@H]3O[C@H](CO)[C@@H](O)[C@H](O)[C@H]3O)c(O)cc2o1 | 2.11 and 0.779 |
| NCC(O)c1ccc(O)cc1 (centres undefined) | 0.488 |
| O=c1c2ccccc2[se]n1-c1ccccc1 | 1.85 |
| C[C@]12CC[C@H]3[C@@H](CCC4=CC(=O)CC[C@@]43C)[C@@H]1CC[C@@H]2O | 0.315 |
| C[C@]12CCC(=O)C[C@@H]1CC[C@@H]1[C@@H]2CC[C@]2(C)C(=O)CC[C@@H]12 [5alpha-ANDROSTAN-3,17-DIONE] | 1.04 |
| CC(=O)O[C@H]1C[C@@H]2CC[C@@H]3[C@H](CC[C@@]4(C)[C@H]3C[C@H]([N+]3(C)CCCCC3)[C@@H]4OC(C)=O)[C@@]2(C)C[C@@H]1[N+]1(C)CCCCC1 | 1.45 |
| C[C@]12CC[C@H](O)C[C@H]1CC[C@@H]1[C@@H]2CC[C@]2(C)[C@@H](C3=CC(=O)OC3)[C@@H](O)C[C@]12O | 2.97 |
| CNC(=O)CSP(=S)(OC)OC | 1.34 |
| CCSCC[C@H](N)C(=O)O | 2.16 |
| CCNc1nc(Cl)nc(NC(C)C)n1 | 0.91 |
| COc1c2c(cc3c1OCO3)CCN(C)C2 | 2.67 |
| CC(=O)O[C@H]1C[C@@H](OC(C)=O)C(C)(C)C2C[C@@H](OC(C)=O)[C@]3(C)C(CC[C@@]4(C)[C@H](c5ccoc5)C(=O)[C@H]5O[C@]543)[C@]21C (some centres undefined) | -3.5 |
| CCCN(CCC)c1c([N+](=O)[O-])cc(C(F)(F)F)cc1[N+](=O)[O-] | 1 |
| C=C(C)[C@H]1CN[C@H](C(=O)O)[C@H]1CC(=O)O | 1.22 |
| C[C@@H]1CC[C@@]2(OC1)O[C@H]1[C@@H](O)[C@H]3[C@@H]4CC[C@H]5C[C@@H](O[C@@H]6O[C@H](CO)[C@H](O[C@@H]7O[C@H](CO)[C@@H](O)[C@H](O[C@@H]8OC[C@@H](O)[C@H](O)[C@H]8O)[C@H]7O[C@@H]7O[C@H](CO)[C@H](O)[C@H](O[C@@H]8O[C@H](CO)[C@@H](O)[C@H](O)[C@H]8O)[C@H]7O)[C@H](O)[C@H]6O)[C@H](O)C[C@]5(C)[C@H]4CC[C@]3(C)[C@H]1[C@@H]2C | 1.55 |
| Cc1cc(O)ccc1Cl | -3.67 |
| C=C[C@H]1CN2CC[C@H]1C[C@H]2[C@H](OC(=O)OCC)c1ccnc2ccc(OC)cc12 | 0.313 |
| Nc1ncn[nH]1 | 2.02 |
| CCCCC[C@H]1C(=O)O[C@H](C)[C@H](NC(=O)c2cccc(NC=O)c2O)C(=O)O[C@@H](C)[C@@H]1OC(=O)CC(C)C [ANTIMYCIN A (A1 shown)] | -0.135 |
| CC[C@H]1CN2CC[C@H]1C[C@@H]2[C@@H](O)c1ccnc2ccc(OC)cc12 | 1.3 |
| CC(C)=CCCC1(C)C=Cc2c(O)c3c(c(CC=C(C)C)c2O1)OC12C(CC4CC1C(C)(C)OC2(C/C=C(/C)C(=O)O)C4O)C3=O (centres undefined) | 1.12 |
| CC(C)N(CCC(C(N)=O)(c1ccccc1)c1ccccn1)C(C)C (centres undefined) | -0.634 |
| CC[C@@]1(O)C[C@H](O[C@H]2C[C@H](N(C)C)[C@H](O)[C@H](C)O2)c2c(cc3c(c2O)C(=O)c2c(O)cccc2C3=O)[C@H]1C(=O)OC | 2.42 |
